The record followed here is patent publication US11324825B2, “Synthetic retinoids (in cell modulation)” (University of Durham, priority 2016, dated 2022).

Structures are written as SMILES. Entries after “also recorded” stand apart in the source; their conditions may differ.

The test system of this series is HaCaT human keratinocyte cells. In words: Fixed cell imaging (localisation of compound fluorescence). Particulars: 1 μM, 72 hours (FIG. 4). Type of series: cell-based.

For `CC(C)N1CCC(C)(C)c2cc(C#Cc3ccc(/C=C/C(=O)O)cc3)ccc21` [DC324, (2E)-3-(4-2-[4,4-Dimethyl-1-(propan-2-yl)-1,2,3,4-tetrahydroquinolin-6-yl]ethynylphenyl)prop-2-enoic Acid], the “subcellular localisation of compound fluorescence” value is “localised to one side of the nucleus; also recorded: Some regions show overlap between the Golgi and DC324”.
